From US20050089858A1
Results are given in words; binding and its absence hold for the method and conditions named. Binding seen in cells or lysates may run through a third protein. Some binding calls cover weakened binding; strength is not graded here. Where a sequence is shown, tags or fusion partners need not be part of it.

Target: Salvador WW domain-GST construct (Drosophila Salvador residues 419-495 fused to GST) (Drosophila) [GST: P08515]
Test: GST pull-down: GST-Salvador(419-495) on glutathione-sepharose with 293T lysate expressing Myc-Warts, anti-Myc 9E10 immunoblot

binding: binds
B1: Myc-tagged Drosophila Warts protein (enzyme, not shown: small tags and cut ends)
chain: MHPAGEKRGGRPNDKYTAEALESIKQDLTRFEVQNNHRNNQNYTPLRYTATNGRNDALTPDYHHAKQPMEPPPSASPAPDVVIPPPPAIVGQPGAGSISVSGVGVGVVGVANGRVPKMMTALMPNKLIRKPSIERDTASSHYLRCSPALDSGAGSSRSDSPHSHHTHQPSSRTVGNPGGNGGFSPSPSGFSEVAPPAPPPRNPTASSAATPPPPVPPTSQAYVKRRSPALNNRPPAIAPPTQRGNSPVITQNGLKNPQQQLTQQLKSLNLYPGGGSGAVVEPPPPYLIQGGAGGAAPPPPPPSYTASMQSRQSPTQSQQSDYRKSPSSGIYSATSAGSPSPITVSLPPAPLAKPQPRVYQARSQQPIIMQSVKSTQVQKPVLQTAVAPQSPSSASASNSPVHVLAAPPSYPQKSAAVVQQQQQAAAAAHQQQHQHQQSKPATPTTPPLVGLNSKPNCLEPPSYAKSMQAKAATVVQQQQQQQQQQQVQQQQVQQQQQQQQQQLQALRVLQAQAQRERDQRERERDQQKLANGNPGRQMLPPPPYQSNNNNNSEIKPPSCNNNNIQISNSNLATTPPIPPAKYNNNSSNTGANSSGGSNGSTGTTASSSTSCKKIKHASPIPERKKISKEKEEERKEFRIRQYSPQAFKFFMEQHIENVIKSYRQRTYRKNQLEKEMHKVGLPDQTQIEMRKMLNQKESNYIRLKRAKMDKSMFVKLKPIGVGAFGEVTLVSKIDTSNHLYAMKTLRKADVLKRNQVAHVKAERDILAEADNNWVVKLYYSFQDKDNLYFVMDYIPGGDLMSLLIKLGIFEEELARFYIAEVTCAVDSVHKMGFIHRDIKPDNILIDRDGHIKLTDFGLCTGFRWTHNSKYYQENGNHSRQDSMEPWEEYSENGPKPTVLERRRMRDHQRVLAHSLVGTPNYIAPEVLERSGYTQLCDYWSVGVILYEMLVGQPPFLANSPLETQQKVINWEKTLHIPPQAELSREATDLIRRLCASADKRLGKSVDEVKSHDFFKGIDFADMRKQKAPYIPEIKHPTDTSNFDPVDPEKLRSNDSTMSSGDDVDQNDRTFHGFFEFTFRRFFDDKQPPDMTDDQAPVYV
